These are yes or no findings as the source states them, for the method shown. In cells and extracts the contact can be indirect. Some results given as binding are weak or reduced against the parent protein; the word gives no strength. Tags and fused reporters may be left off the sequences shown.
T1: HA-TRAF4 (UniProt Q9BUZ4)
T1 sequence: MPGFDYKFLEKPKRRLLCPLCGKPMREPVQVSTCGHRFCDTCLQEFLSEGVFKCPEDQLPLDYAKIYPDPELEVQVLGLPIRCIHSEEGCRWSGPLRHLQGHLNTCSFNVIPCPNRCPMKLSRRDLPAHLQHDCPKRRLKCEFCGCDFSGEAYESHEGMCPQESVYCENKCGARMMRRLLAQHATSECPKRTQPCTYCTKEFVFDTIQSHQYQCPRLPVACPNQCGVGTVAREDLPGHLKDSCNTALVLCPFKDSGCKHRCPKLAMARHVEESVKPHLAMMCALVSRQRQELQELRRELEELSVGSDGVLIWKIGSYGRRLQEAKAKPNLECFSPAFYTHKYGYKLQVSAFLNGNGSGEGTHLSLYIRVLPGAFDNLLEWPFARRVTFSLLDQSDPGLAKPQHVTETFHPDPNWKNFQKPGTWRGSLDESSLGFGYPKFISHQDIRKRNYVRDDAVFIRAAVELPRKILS

Protein sequences, listed by entry. Tags and fused reporters are not part of them.
UniProt Q9UBN7: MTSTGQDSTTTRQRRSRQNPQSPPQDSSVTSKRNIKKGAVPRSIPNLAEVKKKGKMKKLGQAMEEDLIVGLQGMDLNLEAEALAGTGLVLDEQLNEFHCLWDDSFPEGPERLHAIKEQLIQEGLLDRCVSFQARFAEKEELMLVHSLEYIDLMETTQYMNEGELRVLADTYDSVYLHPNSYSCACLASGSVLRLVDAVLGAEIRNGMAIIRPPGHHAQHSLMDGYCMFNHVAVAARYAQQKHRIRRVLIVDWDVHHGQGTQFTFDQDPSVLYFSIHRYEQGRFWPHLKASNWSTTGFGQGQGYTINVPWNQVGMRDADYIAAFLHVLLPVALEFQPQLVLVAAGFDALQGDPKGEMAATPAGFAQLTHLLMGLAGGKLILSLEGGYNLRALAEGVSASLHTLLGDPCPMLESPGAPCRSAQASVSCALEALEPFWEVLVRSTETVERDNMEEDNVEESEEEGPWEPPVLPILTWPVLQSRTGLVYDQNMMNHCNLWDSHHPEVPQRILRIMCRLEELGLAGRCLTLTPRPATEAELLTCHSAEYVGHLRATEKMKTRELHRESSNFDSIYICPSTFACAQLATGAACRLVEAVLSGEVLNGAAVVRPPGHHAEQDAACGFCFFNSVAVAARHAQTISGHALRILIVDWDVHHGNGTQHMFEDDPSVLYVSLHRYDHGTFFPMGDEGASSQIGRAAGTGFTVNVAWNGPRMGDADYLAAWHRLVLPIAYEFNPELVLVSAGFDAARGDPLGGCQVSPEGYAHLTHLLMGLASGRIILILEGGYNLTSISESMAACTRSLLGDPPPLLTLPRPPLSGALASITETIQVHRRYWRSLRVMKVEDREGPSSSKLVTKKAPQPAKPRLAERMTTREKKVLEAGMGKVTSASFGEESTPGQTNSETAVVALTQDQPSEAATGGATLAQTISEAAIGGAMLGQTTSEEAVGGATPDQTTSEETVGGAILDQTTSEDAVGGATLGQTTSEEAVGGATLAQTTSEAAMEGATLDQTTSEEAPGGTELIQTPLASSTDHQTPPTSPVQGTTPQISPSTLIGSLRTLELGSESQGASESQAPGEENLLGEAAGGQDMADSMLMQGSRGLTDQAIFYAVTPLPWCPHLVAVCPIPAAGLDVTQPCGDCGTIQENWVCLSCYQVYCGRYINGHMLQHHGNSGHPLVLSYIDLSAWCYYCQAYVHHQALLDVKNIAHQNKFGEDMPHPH

T2: Tumor necrosis factor receptor-associated factor 4 (TRAF4), endogenous (mouse (endogenous in TS^KI cells and E13.5 embryos)) (UniProt Q61382)
T2 sequence: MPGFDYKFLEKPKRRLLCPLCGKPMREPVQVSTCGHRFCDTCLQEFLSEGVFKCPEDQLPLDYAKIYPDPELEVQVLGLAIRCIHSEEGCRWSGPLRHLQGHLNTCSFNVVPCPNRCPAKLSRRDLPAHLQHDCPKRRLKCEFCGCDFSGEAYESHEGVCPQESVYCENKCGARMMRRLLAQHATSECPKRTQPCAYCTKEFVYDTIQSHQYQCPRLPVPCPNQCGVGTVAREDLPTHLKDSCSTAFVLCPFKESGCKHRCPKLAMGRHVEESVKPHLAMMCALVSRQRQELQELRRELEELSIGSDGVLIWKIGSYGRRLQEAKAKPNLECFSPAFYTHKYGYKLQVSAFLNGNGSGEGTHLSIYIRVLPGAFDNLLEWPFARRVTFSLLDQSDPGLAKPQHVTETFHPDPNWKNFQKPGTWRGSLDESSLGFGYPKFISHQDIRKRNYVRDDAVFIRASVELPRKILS


Legend:
[1] = target: T1, HA-TRAF4; assay: co-IP; HEK293T cells cotransfected with tagged TRAF4 and HDAC6 constructs, Western blot
[2] = target: T2, Tumor necrosis factor receptor-associated factor 4 (TRAF4), endogenous (mouse (endogenous in TS^KI cells and E13.5 embryos)); assay: co-IP; endogenous proteins in TS^KI cell lysates and E13.5 embryo lysates, Western blot

| binding [1] | Molecule | binding [2] |
| --- | --- | --- |
| binds | Flag-HDAC6 (from UniProt Q9UBN7 1-1215) (enzyme) | – |
| – | Histone deacetylase 6 (HDAC6), endogenous (enzyme, UniProt Q9Z2V5 1-1149) MTSTGQDSSTRQRKSRHNPQSPLQESSATLKRGGKKCAVPHSSPNLAEVKKKGKMKKLSQPAEEDLVVGLQGLDLNPETRVPVGTGLVFDEQLNDFHCLWDDSFPESPERLHAIREQLILEGLLGRCVSFQARFAEKEELMLVHSLEYIDLMETTQYMNEGELRVLAETYDSVYLHPNSYSCACLATGSVLRLVDALMGAEIRNGMAVIRPPGHHAQHNLMDGYCMFNHLAVAARYAQKKHRIQRVLIVDWDVHHGQGTQFIFDQDPSVLYFSIHRYEHGRFWPHLKASNWSTIGFGQGQGYTINVPWNQTGMRDADYIAAFLHILLPVASEFQPQLVLVAAGFDALHGDPKGEMAATPAGFAHLTHLLMGLAGGKLILSLEGGYNLRALAKGVSASLHTLLGDPCPMLESCVVPCASAQTSIYCTLEALEPFWEVLERSVETQEEDEVEEAVLEEEEEEGGWEATALPMDTWPLLQNRTGLVYDEKMMSHCNLWDNHHPETPQRILRIMCHLEEVGLAARCLILPARPALDSELLTCHSAEYVEHLRTTEKMKTRDLHREGANFDSIYICPSTFACAKLATGAACRLVEAVLSGEVLNGIAVVRPPGHHAEPNAACGFCFFNSVAVAARHAQIIAGRALRILIVDWDVHHGNGTQHIFEDDPSVLYVSLHRYDRGTFFPMGDEGASSQVGRDAGIGFTVNVPWNGPRMGDADYLAAWHRLVLPIAYEFNPELVLISAGFDAAQGDPLGGCQVTPEGYAHLTHLLMGLAGGRIILILEGGYNLASISESMAACTHSLLGDPPPQLTLLRPPQSGALVSISEVIQVHRKYWRSLRLMKMEDKEECSSSRLVIKKLPPTASPVSAKEMTTPKGKVPEESVRKTIAALPGKESTLGQAKSKMAKAVLAQGQSSEQAAKGTTLDLATSKETVGGATTDLWASAAAPENFPNQTTSVEALGETEPTPPASHTNKQTTGASPLQGVTAQQSLQLGVLSTLELSREAEEAHDSEEGLLGEAAGGQDMNSLMLTQGFGDFNTQDVFYAVTPLSWCPHLMAVCPIPAAGLDVSQPCKTCGTVQENWVCLTCYQVYCSRYVNAHMVCHHEASEHPLVLSCVDLSTWCYVCQAYVHHEDLQDVKNAAHQNKFGEDMPHSH | binds |

— paper PMC11787431
